We go through 34 molecules from the supplement of paper PMC4635364.

Where a name gives a salt, the structure may show the parent alone. The list shows a part of the results. This data set is noisy: repeats of one test often differ as much as different tests do.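 Human fetal ventral-midbrain neural progenitor line ReNCell VM, differentiated without mitogens. Images stained for doublecortin (early neurons) or tyrosine hydroxylase (dopaminergic neurons) were scored by blinded raters against untreated wells (0 = no change). Repeats and both raters were averaged, and compounds averaging 2 or higher were picked as hits for retesting.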

Experiment [1] relates to ReNCell VM. The experiment can be described thus: neuronal differentiation score (DCX+ cell fraction vs untreated, manual image score) (score (-3 to 3)); higher = more neuronal differentiation. Conditions: 2 uM, 2 weeks.
In experiment [2] the test system is ReNCell VM. As to the kind of experiment: dopaminergic neuron differentiation score (TH+ cell fraction vs untreated, manual image score) (score (0 to 3)); higher = more TH+ dopaminergic neuron differentiation. Conditions: 2 uM, 4 weeks, BDNF 10 ng/ml + GDNF 10 ng/ml.

Turning to `COc1ccc2c(=O)c(-c3ccc(O)cc3)coc2c1`, the neuronal differentiation score in the experiment on ReNCell VM [1] (library: Spectrum) was inactive: 0. For the same molecule, the “dopaminergic neuron differentiation score” value with ReNCell VM [2] (library: Spectrum) was inactive: 0.
As to `CCCCOc1cc(C(=O)OCCN(CC)CC)ccc1N` [Benoxinate hydrochloride], the neuronal differentiation score with ReNCell VM [1] (library: Prestwick) was inactive: 1. Also, the “dopaminergic neuron differentiation score” value in the experiment on ReNCell VM [2] (library: Prestwick) is inactive: 0.
In the case of `Cc1ccccc1N1C(=O)c2cc(S(N)(=O)=O)c(Cl)cc2NC1C` (stereo not drawn), the neuronal differentiation score with ReNCell VM [1] (library: Spectrum) is inactive: 0. For the same molecule, the “dopaminergic neuron differentiation score” value with ReNCell VM [2] (library: Spectrum) is inactive: 0.
As to `C[C@]12CC[C@@H]3c4ccc(OS(=O)(=O)O)cc4CC[C@H]3[C@@H]1CCC2=O` [Estropipate], the neuronal differentiation score in the experiment on ReNCell VM [1] (library: Prestwick) was inactive: 0. The “dopaminergic neuron differentiation score” value in the experiment on ReNCell VM [2] (library: Prestwick) was inactive: 0.
In the case of `c1cc(CN2CCCCC2)cc(OCCCNc2nc3ccccc3s2)c1` [Zolantidine dimaleate], the neuronal differentiation score with ReNCell VM [1] (library: Tocriscreen) was inactive: 0. In the experiment with ReNCell VM [2] (library: Tocriscreen), the “dopaminergic neuron differentiation score” value is inactive: 0.
In the case of `O=C(O)/C=C/c1ccc(O)c(O)c1` [caffeic acid], the neuronal differentiation score in the experiment with ReNCell VM [1] (library: Natural) was inactive: 1. The “dopaminergic neuron differentiation score” value with ReNCell VM [2] (library: Natural) is inactive: 0.
With `N[C@@H]1CCN(O)C1=O`, the neuronal differentiation score with ReNCell VM [1] (library: Tocriscreen) is inactive: 0. For the same molecule, the “dopaminergic neuron differentiation score” value in the experiment on ReNCell VM [2] (library: Tocriscreen) is inactive: 0.
With `CC1=C(/C=C/C(C)=C/C=C/C(C)=C/C(=O)Nc2ccc(O)cc2)C(C)(C)CCC1` [Fenretinide], the neuronal differentiation score in the experiment on ReNCell VM [1] (library: Tocriscreen) is inactive: 0. In addition, the “dopaminergic neuron differentiation score” value in the experiment on ReNCell VM [2] (library: Tocriscreen) is inactive: 0.
For the molecule `COC(=O)C1=C(C)NC(C)=C(C(=O)OCCSc2ccccc2)C1C` (stereo not drawn), the neuronal differentiation score in the experiment on ReNCell VM [1] (library: Tocriscreen) was inactive: 0. The “dopaminergic neuron differentiation score” value in the experiment with ReNCell VM [2] (library: Tocriscreen) is inactive: 0.
As to `O=c1cc(-c2cc(O)c(O)c(O)c2)oc2cc(O)cc(O)c12`, in the experiment with ReNCell VM [1] (library: Spectrum), the neuronal differentiation score is inactive: 0. For the same molecule, the “dopaminergic neuron differentiation score” value with ReNCell VM [2] (library: Spectrum) was inactive: 0.
As for `O=C(OCC(O)CO)c1ccccc1Nc1ccnc2cc(Cl)ccc12` (stereo not drawn) [Glafenine hydrochloride], the neuronal differentiation score with ReNCell VM [1] (library: Prestwick) is inactive: 0. Further, in the experiment with ReNCell VM [2] (library: Prestwick), the “dopaminergic neuron differentiation score” value was inactive: 0.
With `COc1ccccc1OCC(O)CN1CCN(CC(=O)Nc2c(C)cccc2C)CC1` (stereo not drawn) [Ranolazine dihydrochloride], the neuronal differentiation score in the experiment with ReNCell VM [1] (library: LOPAC) is inactive: 0. Further, the “dopaminergic neuron differentiation score” value in the experiment on ReNCell VM [2] (library: LOPAC) was inactive: 0.
Consider `COC(=O)C1=CO[C@@H](C)[C@H]2CN3CCc4c([nH]c5ccccc45)[C@@H]3C[C@H]12` [Ajmalicine hydrochloride], for which the neuronal differentiation score with ReNCell VM [1] (library: Phytochemical) was inactive: 0. Also, in the experiment with ReNCell VM [2] (library: Phytochemical), the “dopaminergic neuron differentiation score” value was inactive: 0.
With `c1ccc(C2CN3CCSC3=N2)cc1` (stereo not drawn), the neuronal differentiation score with ReNCell VM [1] (library: Spectrum) was inactive: 0. Further, the “dopaminergic neuron differentiation score” value in the experiment with ReNCell VM [2] (library: Spectrum) is inactive: 0.
Consider `CCCCCCCCCCCCCCCC(=O)OC[C@H](O)[C@H]1OC(=O)C(O)=C1O`, for which, in the experiment on ReNCell VM [1] (library: Spectrum), the neuronal differentiation score was inactive: 0. Also, in the experiment with ReNCell VM [2] (library: Spectrum), the “dopaminergic neuron differentiation score” value is inactive: 0.
As to `Cc1ccc(-c2ncc(Cl)cc2-c2ccc(S(C)(=O)=O)cc2)cn1` [Etoricoxib], the neuronal differentiation score in the experiment on ReNCell VM [1] (library: Prestwick) is inactive: 0. For the same molecule, the “dopaminergic neuron differentiation score” value with ReNCell VM [2] (library: Prestwick) was inactive: 0.
For the molecule `CS(=O)(=O)Nc1ccc([N+](=O)[O-])cc1Oc1ccccc1`, in the experiment with ReNCell VM [1] (library: Spectrum), the neuronal differentiation score is inactive: 0. For the same molecule, the “dopaminergic neuron differentiation score” value in the experiment on ReNCell VM [2] (library: Spectrum) is inactive: 0.
Consider `OCCc1ccccc1`, for which the neuronal differentiation score in the experiment with ReNCell VM [1] (library: Spectrum) was inactive: 0. Moreover, the “dopaminergic neuron differentiation score” value in the experiment on ReNCell VM [2] (library: Spectrum) is inactive: 0.
Take `COCCCOc1ccnc(C[S+]([O-])c2nc3ccccc3[nH]2)c1C` (stereo not drawn) [Rabeprazole Sodium salt]: the neuronal differentiation score in the experiment with ReNCell VM [1] (library: Prestwick) is inactive: 0. Besides, the “dopaminergic neuron differentiation score” value in the experiment on ReNCell VM [2] (library: Prestwick) was inactive: 0.
Turning to `CCOC(=O)NNc1nncc2ccccc12` [Todralazine hydrochloride], the neuronal differentiation score in the experiment with ReNCell VM [1] (library: Prestwick) is inactive: 0. The “dopaminergic neuron differentiation score” value in the experiment with ReNCell VM [2] (library: Prestwick) was inactive: 0.
In the case of `CC(C)CN(C)c1nc(N)c(C(=O)N=C(N)N)nc1Cl` [5-(N-Methyl-N-isobutyl)amiloride], in the experiment on ReNCell VM [1] (library: LOPAC), the neuronal differentiation score was inactive: 0. Also, the “dopaminergic neuron differentiation score” value with ReNCell VM [2] (library: LOPAC) was inactive: 0.
For the molecule `CC(=O)Oc1ccccc1C(=O)O`, in the experiment with ReNCell VM [1] (library: Spectrum), the neuronal differentiation score was inactive: 0. The “dopaminergic neuron differentiation score” value in the experiment on ReNCell VM [2] (library: Spectrum) was inactive: 0.
For the molecule `COC(=O)C1=C(C)NC(C)=C(C(=O)OCC(C)C)C1c1ccccc1[N+](=O)[O-]` (stereo not drawn) [Nisoldipine], the neuronal differentiation score in the experiment on ReNCell VM [1] (library: Prestwick) was inactive: 0. The “dopaminergic neuron differentiation score” value in the experiment with ReNCell VM [2] (library: Prestwick) was inactive: 0.
`NC1=NCC2c3ccccc3Cc3ccccc3N12` (stereo not drawn) [Epinastine hydrochloride]: the neuronal differentiation score in the experiment on ReNCell VM [1] (library: LOPAC) is inactive: 0. Also, the “dopaminergic neuron differentiation score” value in the experiment with ReNCell VM [2] (library: LOPAC) was inactive: 0.
Regarding `CCCCC(=O)O[C@H]1CC[C@H]2[C@@H]3CCc4cc(O)ccc4[C@H]3CC[C@]12C`, the neuronal differentiation score in the experiment on ReNCell VM [1] (library: Spectrum) was inactive: 0. The “dopaminergic neuron differentiation score” value in the experiment on ReNCell VM [2] (library: Spectrum) is inactive: 0.
On to `O=C(COc1ccc(Cl)cc1)N1CCN(Cc2ccc3c(c2)OCO3)CC1` [Fipexide hydrochloride], for which the neuronal differentiation score in the experiment with ReNCell VM [1] (library: Prestwick) was inactive: 0. For the same molecule, the “dopaminergic neuron differentiation score” value in the experiment on ReNCell VM [2] (library: Prestwick) was inactive: 0.
Take `NCCc1cc[nH]n1`: the neuronal differentiation score with ReNCell VM [1] (library: Spectrum) was inactive: 0. Further, in the experiment with ReNCell VM [2] (library: Spectrum), the “dopaminergic neuron differentiation score” value was inactive: 0.
Consider `c1cc2c3c(c1)c1c(n3CCNC2)CCCC1` [WAY 629 hydrochloride], for which the neuronal differentiation score in the experiment with ReNCell VM [1] (library: Tocriscreen) is inactive: 0. Besides, the “dopaminergic neuron differentiation score” value in the experiment on ReNCell VM [2] (library: Tocriscreen) was inactive: 0.
Consider `CCCC(CCC)C(=O)O`, for which, in the experiment on ReNCell VM [1] (library: Spectrum), the neuronal differentiation score is inactive: 0. In addition, the “dopaminergic neuron differentiation score” value in the experiment on ReNCell VM [2] (library: Spectrum) is inactive: 0.
As for `O=C1C[C@@H](c2ccc(O[C@@H]3O[C@H](CO)[C@@H](O)[C@H](O)[C@H]3O)cc2)Oc2cc(O)ccc21` [liquiritin], the neuronal differentiation score in the experiment with ReNCell VM [1] (library: Natural) is inactive: 0. Moreover, the “dopaminergic neuron differentiation score” value in the experiment with ReNCell VM [2] (library: Natural) is inactive: 0.
On to `C=CCSCC1Nc2cc(Cl)c(S(N)(=O)=O)cc2S(=O)(=O)N1` (stereo not drawn), for which the neuronal differentiation score in the experiment with ReNCell VM [1] (library: Spectrum) is inactive: 0. In addition, the “dopaminergic neuron differentiation score” value with ReNCell VM [2] (library: Spectrum) was inactive: 0.
Take `CC1(C)C(=O)C=C[C@]2(C)[C@H]3CC[C@@]4(C)[C@H](c5ccoc5)OC(=O)[C@H]5O[C@]54[C@]3(C)C(=O)C[C@@H]12`: the neuronal differentiation score with ReNCell VM [1] (library: Spectrum) is inactive: 0. Further, the “dopaminergic neuron differentiation score” value in the experiment on ReNCell VM [2] (library: Spectrum) was inactive: 0.
On to `O=c1cc(-c2cccc3c2Sc2ccccc2S3)oc(N2CCOCC2)c1`, for which, in the experiment on ReNCell VM [1] (library: Tocriscreen), the neuronal differentiation score was inactive: 0. Further, the “dopaminergic neuron differentiation score” value in the experiment on ReNCell VM [2] (library: Tocriscreen) was inactive: 0.
Turning to `N#CC(c1ccc(Cl)cc1)c1c(Cl)cc(-n2ncc(=O)[nH]c2=O)cc1Cl` (stereo not drawn), the neuronal differentiation score in the experiment on ReNCell VM [1] (library: Spectrum) was inactive: 0. The “dopaminergic neuron differentiation score” value with ReNCell VM [2] (library: Spectrum) is inactive: 0.
